Measurements reported in PubChem BioAssay AID1259254 (NCATS, 2017).
Aim: 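Genome-wide screen for genes that prevent DNA re-replication in cancer cells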 (primary screen). Cell system: human HCT116 colorectal cancer cells. Reagent: single siRNA against human genes. Time to read-out: 3 days. Measured: 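Imaged Hoechst DNA stain sorts each cell into a cycle phase by DNA amount; per plate, G2 fraction set to 0% for non-targeting and 100% for GMNN siRNA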. Reading the numbers: G2 robust z-score and G2 cells, % of GMNN control: higher = more G2 cells, more excess DNA replication; raw share of cells in G2: higher = larger share of cells with G2 DNA content. Hit rule: 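Active siRNAs have a G2 robust z of 5 or more median absolute deviations over the median, which in these data means about 38% or higher of GMNN control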.
The deposit covers about 59,000 reagents; shown is a random part of them. About 1,550 of all reagents (2.6%) count as active. 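G2 share is only a proxy for re-replication; each gene was hit by three separate siRNAs, and active genes were retested.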 The raw values are shown without normalisation. A number with no mark means an inactive call. The numbers tell different reagents against one gene apart. Not given: the amount of reagent.

G2 robust z-score | G2 cells, % of GMNN control | raw share of cells in G2 (%) | gene symbol | reagent
-0.921 | -3.51 | 1.92 | DEFB135 | 1
1.02 | 10.2 | 7.55 | DEFB135 | 2
-0.59 | -1.19 | 2.97 | DEFB135 | 3
-0.864 | -3.11 | 3.78 | PIGA | 1
-0.277 | 1.02 | 4.61 | PIGA | 2
-0.95 | -3.72 | 2.38 | PIGA | 3
1.42 | 12.9 | 8.23 | CFAP206 | 1
0.149 | 4.02 | 4.31 | CFAP206 | 2
0.871 | 9.1 | 5.64 | CFAP206 | 3
0.275 | 4.9 | 7.95 | EARS2 | 1
2.49 | 20.5 | 13.8 | EARS2 | 2
0.155 | 4.06 | 6.01 | EARS2 | 3
0.392 | 5.72 | 5.89 | DNAJB3P | 1
0.401 | 5.79 | 5.81 | DNAJB3P | 2
1.62 | 14.3 | 10.7 | DNAJB3P | 3
5.86 (active) | 44.2 | 18.3 | ZNF597 | 1
3.47 | 27.4 | 12.7 | ZNF597 | 2
1.42 | 12.9 | 8.06 | ZNF597 | 3
2.59 | 21.2 | 12 | SCAPER | 1
0.375 | 5.61 | 6.67 | SCAPER | 2
-1.01 | -4.16 | 1.94 | SCAPER | 3
-0.128 | 2.07 | 4.92 | MYL6P5 | 1
1.41 | 12.9 | 7.16 | MYL6P5 | 2
-0.994 | -4.03 | 0.641 | MYL6P5 | 3

8 entries from above in another layout:
DNAJB3P #2
- G2 robust z-score: 0.401
- G2 cells, % of GMNN control: 5.79
- raw share of cells in G2 (%): 5.81

DNAJB3P #3
- G2 robust z-score: 1.62
- G2 cells, % of GMNN control: 14.3
- raw share of cells in G2 (%): 10.7

ZNF597 #1
- G2 robust z-score: 5.86 (active)
- G2 cells, % of GMNN control: 44.2
- raw share of cells in G2 (%): 18.3

ZNF597 #2
- G2 robust z-score: 3.47
- G2 cells, % of GMNN control: 27.4
- raw share of cells in G2 (%): 12.7

ZNF597 #3
- G2 robust z-score: 1.42
- G2 cells, % of GMNN control: 12.9
- raw share of cells in G2 (%): 8.06

SCAPER #1
- G2 robust z-score: 2.59
- G2 cells, % of GMNN control: 21.2
- raw share of cells in G2 (%): 12

SCAPER #2
- G2 robust z-score: 0.375
- G2 cells, % of GMNN control: 5.61
- raw share of cells in G2 (%): 6.67

SCAPER #3
- G2 robust z-score: -1.01
- G2 cells, % of GMNN control: -4.16
- raw share of cells in G2 (%): 1.94

Further records:
G2 robust z-score | G2 cells, % of GMNN control | raw share of cells in G2 (%) | gene symbol | reagent
1.31 | 12.2 | 10.3 | LDHB | 1
-1.61 | -8.36 | 2.13 | LDHB | 2
-0.384 | 0.266 | 3.28 | LDHB | 3
-0.433 | -0.077 | 4.6 | MTCL3 | 1
-0.956 | -3.76 | 2.48 | MTCL3 | 2
-0.329 | 0.652 | 3.69 | MTCL3 | 3
-0.737 | -2.22 | 4.07 | ENTPD3 | 1
0.233 | 4.61 | 5.69 | ENTPD3 | 2
-0.179 | 1.71 | 4.01 | ENTPD3 | 3
3.55 | 28 | 17.5 | SEC23B | 1
-0.644 | -1.56 | 5.02 | SEC23B | 2
-0.446 | -0.172 | 3.79 | SEC23B | 3
0.706 | 7.93 | 8.03 | HMGN5 | 1
-0.671 | -1.75 | 3.82 | HMGN5 | 2
0.587 | 7.1 | 4.57 | HMGN5 | 3
-0.308 | 0.803 | 2.6 | VOPP1 | 1
-0.0764 | 2.43 | 5.45 | VOPP1 | 2
-0.908 | -3.42 | 2.81 | VOPP1 | 3
-1.11 | -4.86 | 1.86 | PARP16 | 1
3.46 | 27.3 | 15.8 | PARP16 | 2
5.05 (active) | 38.5 | 15.9 | PARP16 | 3
-0.419 | 0.0161 | 4.42 | C2CD3 | 1
0.596 | 7.16 | 7.04 | C2CD3 | 2
1.46 | 13.2 | 7.92 | C2CD3 | 3
-0.181 | 1.69 | 4.27 | TET1P1 | 1
-0.667 | -1.73 | 2.76 | TET1P1 | 2
3.09 | 24.7 | 11.5 | TET1P1 | 3
-0.16 | 1.84 | 3.72 | PPARGC1B | 1
0.886 | 9.2 | 6.36 | PPARGC1B | 2
-0.18 | 1.7 | 4.12 | PPARGC1B | 3
2.95 | 23.7 | 13.7 | IDH3B | 1
-0.424 | -0.0151 | 5.68 | IDH3B | 2
0.765 | 8.35 | 7.26 | IDH3B | 3
0.057 | 3.37 | 6.82 | SCP2 | 1
0.642 | 7.49 | 6.44 | SCP2 | 2
1.9 | 16.3 | 10.1 | SCP2 | 3
5.48 (active) | 41.5 | 18 | OPTC | 1
2.29 | 19.1 | 10.2 | OPTC | 2
5.61 (active) | 42.4 | 25.4 | OPTC | 3
0.827 | 8.78 | 8.53 | RBM10 | 1
0.906 | 9.34 | 8.05 | RBM10 | 2
-0.527 | -0.743 | 5 | RBM10 | 3
-0.951 | -3.72 | 3.11 | VAC14 | 1
0.0366 | 3.23 | 5.68 | VAC14 | 2
-1.41 | -6.99 | 3.37 | VAC14 | 3
